PubChem BioAssay AID686943, Drosophila RNAi Screening Center | 2013
The deposit covers about 23,000 reagents; this is an unselected part of those with a known target gene and a result. 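Extra replicates exist only for a retested subset of genes; insulin dose and duration not given; both raised and lowered dpERK matter.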 Reagents against one gene are numbered here. A plus sign joins genes that one reagent is predicted to hit. Reagent sequences are not shown. Not given: the amount of reagent, the time to read-out.

- Purpose: 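Search across the genome for regulators of signalling from receptor tyrosine kinase to ERK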 (primary screen)
- System: Drosophila S2R+ haemocyte-like cells expressing YFP-tagged ERK (Rolled)
- Reagent: long dsRNA against Drosophila genes
- Challenge: insulin stimulation versus unstimulated cells; dose and duration not given
- Measured: 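Antibody staining for doubly phosphorylated ERK divided by ERK-YFP signal, as plate z-scores, in insulin-treated and untreated cells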
- Scale: replicate 1, z-score of dpERK with insulin and replicate 2, z-score of dpERK with insulin: higher = more active ERK per ERK-YFP after insulin; replicate 1, z-score of dpERK under basal conditions: higher = more basal active ERK per ERK-YFP; replicate 1, z-score of ERK-YFP with insulin: higher = more YFP-tagged ERK signal

| Gene | reagent no. | replicate 1, z-score of dpERK with insulin | replicate 2, z-score of dpERK with insulin | replicate 1, z-score of dpERK under basal conditions | replicate 1, z-score of ERK-YFP with insulin |
| --- | --- | --- | --- | --- | --- |
| bdg (GeneID 36747) | 1 | -3.23 | -1.85 | -0.95 | -0.22 |
| CG31106 (GeneID 318594) | 1 | -0.09 | 0 | 0.56 | 0.57 |
| CG11786 (GeneID 42998) | 1 | 0.21 | 0 | 0.58 | -0.31 |
| nopo (GeneID 37083) | 1 | -0.24 | -0.19 | -0.26 | 0.18 |
| CG33521 (GeneID 3346141) | 1 | 0.82 | 0.48 | -1.52 | -0.55 |
| CG33521 (GeneID 3346141) | 2 | 0.49 | -1.25 | -0.19 | 0.11 |
| CG33521 (GeneID 3346141) | 3 | 0.15 | -0.8 | -0.85 | 0.39 |
| alphaTub67C (GeneID 39130) | 1 | -1.99 | -1.56 | 2.39 | -1.81 |
| Ak1 (GeneID 39396) | 1 | -0.74 | -0.17 | 0.04 | 0.6 |
| CG5435 (GeneID 34657) | 1 | -0.4 | 0.23 | -0.98 | 0.04 |
| CG9701 (GeneID 39872) | 1 | -0.09 | 0.58 | 1.1 | 0.21 |
| CG32054 (GeneID 326185) | 1 | -0.44 | -0.02 | -1.39 | 0.19 |
| CG11309 (GeneID 40356) | 1 | 0.02 | 0.06 | 1.76 | -0.01 |
| Cep135 (GeneID 39647) | 1 | 0.7 | -0.88 | -2.11 | 0.17 |
| Cep135 (GeneID 39647) | 2 | -0.37 | -0.17 | 0.39 | 0.6 |
| Sr-CI (GeneID 33621) | 1 | 0.05 | -0.88 | -0.44 | 0.21 |
| upd1 (GeneID 32813) | 1 | 0.61 | 0.87 | -0.11 | 0.03 |
| CG6959 (GeneID 41434) | 1 | 0.56 | 0.74 | -0.49 | 0.13 |
| uncNacbeta (GeneID 33232) | 1 | 0.8 | -0.64 | 0.81 | -0.83 |
| mor (GeneID 41942) | 1 | 0.2 | -1.62 | -0.31 | -2.22 |
| SamDC (GeneID 34396) | 1 | 0.82 | 1.71 | 1.85 | 1.13 |
| CG14963 (GeneID 38383) | 1 | 0.19 | -0.47 | 0.78 | 0.07 |
| CG6431 (GeneID 34476) | 1 | 0.93 | 0.34 | 0.55 | -0.72 |
| CG7248 (GeneID 39356) | 1 | 0.88 | 0.26 | 1.4 | 0.18 |
| vih (GeneID 44118) | 1 | -2.38 | -1.92 | 1.05 | -2.92 |
| CG11007 (GeneID 37249) | 1 | 0.6 | 0.42 | -0.73 | 0.1 |
| Art9 (GeneID 41698) | 1 | 3.86 | 0.5 | 1.44 | -0.01 |
| Hmgcl (GeneID 33978) | 1 | 0.37 | 0 | 1.3 | 0.75 |
| Paics (GeneID 32228) | 1 | 0.16 | -0.39 | -0.38 | -0.56 |
| Gr39b (GeneID 117347) | 1 | 1.54 | 1.29 | -0.61 | -0.29 |
| ninaC (GeneID 34012) | 1 | 0.43 | -1.07 | -0.78 | -0.63 |
| CG31510 (GeneID 326146) | 1 | 0.37 | 0 | 0.53 | -0.41 |
| CG9014 (GeneID 34777) | 1 | -0.17 | 0.33 | 1.5 | 0.36 |
| Dark (GeneID 36914) | 1 | 0.37 | -0.21 | -0.6 | -0.08 |
| E(spl)m3-HLH (GeneID 43156) | 1 | -0.78 | -3.23 | -2.64 | -0.58 |
| CG43288 (GeneID 12798106) | 1 | -2.33 | -2.54 | -0.86 | 2.72 |

6 entries from above, reduced to “replicate 2, z-score of dpERK with insulin”:
CG6431 (GeneID 34476)	0.34
CG7248 (GeneID 39356)	0.26
vih (GeneID 44118)	-1.92
CG11007 (GeneID 37249)	0.42
Art9 (GeneID 41698)	0.5
Hmgcl (GeneID 33978)	0

The results go on.
| Gene | reagent no. | replicate 1, z-score of dpERK with insulin | replicate 2, z-score of dpERK with insulin | replicate 1, z-score of dpERK under basal conditions | replicate 1, z-score of ERK-YFP with insulin |
| --- | --- | --- | --- | --- | --- |
| CG30183 (GeneID 37749) | 1 | 0.24 | 0.47 | 0.21 | -0.9 |
| CG30183 (GeneID 37749) | 2 | -0.01 | 0.26 | 0.31 | 0.27 |
| tai (GeneID 34242) | 1 | -1.57 | -3.17 | -2.78 | -1.38 |
| tai (GeneID 34242) | 2 | 0.01 | 0.04 | 1.29 | -0.02 |
| CG15404 (GeneID 33537) | 1 | 0.22 | 0.33 | 0.01 | -1.01 |
| pes (GeneID 34087) | 1 | -0.05 | -0.45 | -0.1 | -0.22 |
| igl (GeneID 36681) | 1 | -0.23 | -1.66 | 1.36 | 0.25 |
| CG17782 (GeneID 42912) | 1 | -1.01 | 0.21 | 0.77 | 0.22 |
| Npc2h (GeneID 43649) | 1 | 0.56 | -0.24 | 0.47 | -0.09 |
| CG5160 (GeneID 34015) | 1 | 0.13 | 0.87 | 1.12 | 0.96 |
| ATPsynbeta (GeneID 43829) | 1 | 0.14 | 0.13 | -0.87 | -1.08 |
| Uhg2 + snoRNA:Me18S-G1620 + snoRNA:U14:30Ea | 1 | -0.34 | -1.21 | -1.7 | -0.47 |
| CG15209 (GeneID 32011) | 1 | 0.59 | 0.07 | 0.15 | -0.02 |
| Polr2H (GeneID 40415) | 1 | 2.54 | 1.88 | -1.86 | -2.4 |
| glo (GeneID 41431) | 1 | -1.91 | -1.2 | -0.65 | 4.18 |
| CG13907 (GeneID 38104) | 1 | 0.61 | 0.31 | 1.19 | 0.09 |
| EMC10 (GeneID 40396) | 1 | 1.26 | 1.12 | 0.66 | -0.52 |
| CG11790 (GeneID 42999) | 1 | -0.11 | -0.18 | -0.91 | -0.67 |
| Galk (GeneID 39031) | 1 | 0.97 | 0.25 | -0.34 | 0.08 |
| ey (GeneID 43812) | 1 | 0.42 | 0.15 | -0.05 | -0.01 |
| mRpL55 (GeneID 42290) | 1 | -1.15 | -0.15 | 0.3 | 2.82 |
